Test results reported in article PMC6872537.
Results are given in words; binding and its absence hold for the method and conditions named. For some of these results: In cells and extracts the contact can be indirect. Some binding calls cover weakened binding; strength is not graded here. For some of these results: Sequences can lack the tags named with a protein.

T1: GST-GNL3 (glutathione S-transferase-tagged GNL3) (human) (UniProt Q9BVP2)
T1 sequence: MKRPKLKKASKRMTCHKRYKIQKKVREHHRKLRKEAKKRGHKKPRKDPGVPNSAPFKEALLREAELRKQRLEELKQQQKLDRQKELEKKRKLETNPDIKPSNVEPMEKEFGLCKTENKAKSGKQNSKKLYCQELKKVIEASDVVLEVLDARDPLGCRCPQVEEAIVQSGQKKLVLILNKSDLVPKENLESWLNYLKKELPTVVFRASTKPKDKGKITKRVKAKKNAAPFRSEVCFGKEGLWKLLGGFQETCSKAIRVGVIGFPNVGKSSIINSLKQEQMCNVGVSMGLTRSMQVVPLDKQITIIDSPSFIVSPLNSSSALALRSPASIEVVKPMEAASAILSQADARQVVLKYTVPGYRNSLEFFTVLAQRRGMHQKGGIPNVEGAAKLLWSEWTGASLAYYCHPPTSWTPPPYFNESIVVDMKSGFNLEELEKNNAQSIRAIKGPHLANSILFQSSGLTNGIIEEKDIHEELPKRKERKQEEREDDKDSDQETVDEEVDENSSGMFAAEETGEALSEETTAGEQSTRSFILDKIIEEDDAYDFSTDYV

T2: GST-NOLC1 (human) (UniProt Q14978)
T2 sequence: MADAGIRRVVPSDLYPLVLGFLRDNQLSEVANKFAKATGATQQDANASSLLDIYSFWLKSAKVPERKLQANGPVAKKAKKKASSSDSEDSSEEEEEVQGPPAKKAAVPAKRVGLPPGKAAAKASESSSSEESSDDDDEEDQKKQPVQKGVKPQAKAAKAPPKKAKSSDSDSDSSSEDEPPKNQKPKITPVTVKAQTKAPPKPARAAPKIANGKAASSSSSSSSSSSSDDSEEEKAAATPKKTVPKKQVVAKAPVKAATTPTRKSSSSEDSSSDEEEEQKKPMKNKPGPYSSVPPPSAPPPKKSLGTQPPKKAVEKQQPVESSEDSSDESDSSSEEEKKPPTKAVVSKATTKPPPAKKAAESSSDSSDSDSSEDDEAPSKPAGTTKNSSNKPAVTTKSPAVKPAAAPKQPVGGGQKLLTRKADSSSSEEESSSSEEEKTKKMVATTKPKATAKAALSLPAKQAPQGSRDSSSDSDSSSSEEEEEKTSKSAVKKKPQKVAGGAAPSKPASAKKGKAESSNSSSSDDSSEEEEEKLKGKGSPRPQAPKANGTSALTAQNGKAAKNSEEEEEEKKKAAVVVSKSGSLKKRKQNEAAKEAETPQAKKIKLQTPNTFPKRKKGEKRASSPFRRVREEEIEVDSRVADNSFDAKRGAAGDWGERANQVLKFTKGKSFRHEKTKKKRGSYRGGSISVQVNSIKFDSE


Experiments:
[1] = target: T1, GST-GNL3 (glutathione S-transferase-tagged GNL3) (human); experiment: pull-down; GST, GST-GNL3 or GST-NOLC1 beads incubated with His-ING4; eluted with 10 mM reduced glutathione; western blot with anti-His antibody; both purified
[2] = target: T2, GST-NOLC1 (human); experiment: as above
[3] = target: Flag-ING4 (human) (UniProt Q9UNL4); experiment: co-IP; lysate of HEK293T cells temporarily expressing Flag or Flag-ING4, anti-Flag antibody, protein G agarose; western blot of endogenous partner (anti-NOLC1)
[4] = target: ING4 on beads (competitive assay) (human) (UniProt Q9UNL4); experiment: pull-down; competitive assay on ING4 beads: a constant amount of NOLC1 with increasing amounts of GNL3, and a constant amount of GNL3 with increasing amounts of NOLC1; both purified
[5] = target: GFP-ING4 (green fluorescent protein-ING4) (human) (UniProt Q9UNL4); experiment: co-IP; lysate of HAP1 cells stably expressing GFP or GFP-ING4 incubated with nanobody beads against GFP; western blot with anti-GNL3 antibody

| binding [3] | binding [4] | Molecule | also measured |
| --- | --- | --- | --- |
| – | – | His-ING4 (from UniProt Q9UNL4 1-249) | binding [1]: binds; binding [2]: binds |
| binds | – | GNL2, endogenous in HEK293T (from UniProt Q13823 1-731) | – |
| binds | – | NOLC1, endogenous in HEK293T (protein, UniProt Q14978 1-699) MADAGIRRVVPSDLYPLVLGFLRDNQLSEVANKFAKATGATQQDANASSLLDIYSFWLKSAKVPERKLQANGPVAKKAKKKASSSDSEDSSEEEEEVQGPPAKKAAVPAKRVGLPPGKAAAKASESSSSEESSDDDDEEDQKKQPVQKGVKPQAKAAKAPPKKAKSSDSDSDSSSEDEPPKNQKPKITPVTVKAQTKAPPKPARAAPKIANGKAASSSSSSSSSSSSDDSEEEKAAATPKKTVPKKQVVAKAPVKAATTPTRKSSSSEDSSSDEEEEQKKPMKNKPGPYSSVPPPSAPPPKKSLGTQPPKKAVEKQQPVESSEDSSDESDSSSEEEKKPPTKAVVSKATTKPPPAKKAAESSSDSSDSDSSEDDEAPSKPAGTTKNSSNKPAVTTKSPAVKPAAAPKQPVGGGQKLLTRKADSSSSEEESSSSEEEKTKKMVATTKPKATAKAALSLPAKQAPQGSRDSSSDSDSSSSEEEEEKTSKSAVKKKPQKVAGGAAPSKPASAKKGKAESSNSSSSDDSSEEEEEKLKGKGSPRPQAPKANGTSALTAQNGKAAKNSEEEEEEKKKAAVVVSKSGSLKKRKQNEAAKEAETPQAKKIKLQTPNTFPKRKKGEKRASSPFRRVREEEIEVDSRVADNSFDAKRGAAGDWGERANQVLKFTKGKSFRHEKTKKKRGSYRGGSISVQVNSIKFDSE | – |
| – | binds | NOLC1 (competitive assay) (protein, UniProt Q14978 1-699) MADAGIRRVVPSDLYPLVLGFLRDNQLSEVANKFAKATGATQQDANASSLLDIYSFWLKSAKVPERKLQANGPVAKKAKKKASSSDSEDSSEEEEEVQGPPAKKAAVPAKRVGLPPGKAAAKASESSSSEESSDDDDEEDQKKQPVQKGVKPQAKAAKAPPKKAKSSDSDSDSSSEDEPPKNQKPKITPVTVKAQTKAPPKPARAAPKIANGKAASSSSSSSSSSSSDDSEEEKAAATPKKTVPKKQVVAKAPVKAATTPTRKSSSSEDSSSDEEEEQKKPMKNKPGPYSSVPPPSAPPPKKSLGTQPPKKAVEKQQPVESSEDSSDESDSSSEEEKKPPTKAVVSKATTKPPPAKKAAESSSDSSDSDSSEDDEAPSKPAGTTKNSSNKPAVTTKSPAVKPAAAPKQPVGGGQKLLTRKADSSSSEEESSSSEEEKTKKMVATTKPKATAKAALSLPAKQAPQGSRDSSSDSDSSSSEEEEEKTSKSAVKKKPQKVAGGAAPSKPASAKKGKAESSNSSSSDDSSEEEEEKLKGKGSPRPQAPKANGTSALTAQNGKAAKNSEEEEEEKKKAAVVVSKSGSLKKRKQNEAAKEAETPQAKKIKLQTPNTFPKRKKGEKRASSPFRRVREEEIEVDSRVADNSFDAKRGAAGDWGERANQVLKFTKGKSFRHEKTKKKRGSYRGGSISVQVNSIKFDSE | – |
| – | – | GNL3, endogenous in HAP1 (protein, UniProt Q9BVP2 1-549) MKRPKLKKASKRMTCHKRYKIQKKVREHHRKLRKEAKKRGHKKPRKDPGVPNSAPFKEALLREAELRKQRLEELKQQQKLDRQKELEKKRKLETNPDIKPSNVEPMEKEFGLCKTENKAKSGKQNSKKLYCQELKKVIEASDVVLEVLDARDPLGCRCPQVEEAIVQSGQKKLVLILNKSDLVPKENLESWLNYLKKELPTVVFRASTKPKDKGKITKRVKAKKNAAPFRSEVCFGKEGLWKLLGGFQETCSKAIRVGVIGFPNVGKSSIINSLKQEQMCNVGVSMGLTRSMQVVPLDKQITIIDSPSFIVSPLNSSSALALRSPASIEVVKPMEAASAILSQADARQVVLKYTVPGYRNSLEFFTVLAQRRGMHQKGGIPNVEGAAKLLWSEWTGASLAYYCHPPTSWTPPPYFNESIVVDMKSGFNLEELEKNNAQSIRAIKGPHLANSILFQSSGLTNGIIEEKDIHEELPKRKERKQEEREDDKDSDQETVDEEVDENSSGMFAAEETGEALSEETTAGEQSTRSFILDKIIEEDDAYDFSTDYV | binding [5]: binds |
| – | binds | GNL3 (competitive assay) (protein, UniProt Q9BVP2 1-549) MKRPKLKKASKRMTCHKRYKIQKKVREHHRKLRKEAKKRGHKKPRKDPGVPNSAPFKEALLREAELRKQRLEELKQQQKLDRQKELEKKRKLETNPDIKPSNVEPMEKEFGLCKTENKAKSGKQNSKKLYCQELKKVIEASDVVLEVLDARDPLGCRCPQVEEAIVQSGQKKLVLILNKSDLVPKENLESWLNYLKKELPTVVFRASTKPKDKGKITKRVKAKKNAAPFRSEVCFGKEGLWKLLGGFQETCSKAIRVGVIGFPNVGKSSIINSLKQEQMCNVGVSMGLTRSMQVVPLDKQITIIDSPSFIVSPLNSSSALALRSPASIEVVKPMEAASAILSQADARQVVLKYTVPGYRNSLEFFTVLAQRRGMHQKGGIPNVEGAAKLLWSEWTGASLAYYCHPPTSWTPPPYFNESIVVDMKSGFNLEELEKNNAQSIRAIKGPHLANSILFQSSGLTNGIIEEKDIHEELPKRKERKQEEREDDKDSDQETVDEEVDENSSGMFAAEETGEALSEETTAGEQSTRSFILDKIIEEDDAYDFSTDYV | – |
